The list is a part of this screen's results and no random one: it is rich in T/C values a quarter to a half above the control, in often repeated tests (any T/C) and in doses without a T/C. Other doses and runs of a compound stand elsewhere. T/C gives the treated animals as a percentage of the vehicle group. Some doses have a count of surviving animals in place of a T/C: the source files T/C as zero there, which appears to mark a toxic dose or a test without result, not a measured value. Some survivor counts are full or nearly so, which does not show that the dose was tolerated: survival well below the control is almost never listed, so the zero probably covers shortened survival too. Survivors were counted at the toxicity check, usually on the fifth day, unless a day is given; later deaths do not show. Schedule codes are those of the source, taken here to give the interval after Q, in days (D) or hours (H), and the number of doses after X. Brackets with × count equal records among those shown. Some entries hold several experiments; the results are listed from low to high. Where survival is the endpoint, this PubChem deposit counts one and a half times the control or more as active, and values a quarter to a half above the control carry no call in these data; other NCI protocols may use other cut-offs. Some T/C values are followed by the survivors on the day toxicity was checked, most often the fifth; where none is given, no animal had died by that day.
Test system: B6C3F1 mice, B16 melanoma ip, median survival T/C
Assay: NCI In Vivo Anticancer Drug Screen. Data for tumor model B16 Melanoma (intraperitoneal) in B6C3F1 mice
Conditions: T/C endpoint: median survival time, schedule: Q01DX009 (ip), higher T/C = longer survival
Outline: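 Values are T/C ratios: the measurement in treated animals divided by that in vehicle-treated controls, using survival or tumor size in mice carrying transplantable tumors.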

[1] = dose: 100.0 mg/kg/injection, vehicle: saline with Tween-80
[2] = dose: 200.0 mg/kg/injection, vehicle: saline with Tween-80
[3] = dose: 400.0 mg/kg/injection, vehicle: saline with Tween-80
[4] = dose: 12.5 mg/kg/injection, vehicle: Klucel (hydroxypropylcellulose) (HPC)
[5] = dose: 50.0 mg/kg/injection, vehicle: Klucel (hydroxypropylcellulose) (HPC)
[6] = dose: 100.0 mg/kg/injection, vehicle: Klucel (hydroxypropylcellulose) (HPC)
[7] = dose: 200.0 mg/kg/injection, vehicle: Klucel (hydroxypropylcellulose) (HPC)
[8] = dose: 400.0 mg/kg/injection, vehicle: Klucel (hydroxypropylcellulose) (HPC)
[9] = dose: 50.0 mg/kg/injection, vehicle: saline with Tween-80
[10] = dose: 25.0 mg/kg/injection, vehicle: saline
[11] = dose: 50.0 mg/kg/injection, vehicle: saline
[12] = dose: 100.0 mg/kg/injection, vehicle: other
[13] = dose: 100.0 mg/kg/injection, vehicle: saline
[14] = dose: 800.0 mg/kg/injection, vehicle: Klucel (hydroxypropylcellulose) (HPC)

## CCS(=O)(=O)OCCCCOS(=O)(=O)CC
[1]
  survivor count: 7 of 10
[2]
  survivor count: 0 of 10

## CC(=S)NC(O)C(=O)c1ccccc1 (stereo unspecified)
dose: 200.0 mg/kg/injection, vehicle: distilled water + Tween-80
  survivor count: 3 of 10
dose: 400.0 mg/kg/injection, vehicle: distilled water + Tween-80
  survivor count: 0 of 10
[3]
  survivor count: 5 of 10

## CCC(=O)OCC1OC(n2cnc3c(=S)nc(N)[nH]c32)C(OC(=O)CC)C1OC(=O)CC (stereo unspecified)
[4]
  T/C: 125 % of control
[5]
  survivor count: 10 of 10
[6]
  survivor count: 10 of 10

## Cc1cc(NCCCCCCCCNc2cc(C)nc3cc(N(C)C)ccc23)c2ccc(N(C)C)cc2n1
dose: 6.25 mg/kg/injection, vehicle: distilled water + Tween-80
  T/C: 127 % of control
dose: 12.5 mg/kg/injection, vehicle: distilled water + Tween-80
  T/C: 130 and 131 % of control
dose: 25.0 mg/kg/injection, vehicle: distilled water + Tween-80
  T/C: 139 % of control
dose: 50.0 mg/kg/injection, vehicle: distilled water + Tween-80
  survivor count: 6 of 10 and 9 of 9
dose: 100.0 mg/kg/injection, vehicle: distilled water + Tween-80
  survivor count: 0 of 10

## CCC1(O)C(=O)OCc2c1cc1n(c2=O)Cc2cc3ccccc3nc2-1 (stereo unspecified)
dose: 0.19 mg/kg/injection, vehicle: other
  T/C: 133 % of control
dose: 0.38 mg/kg/injection, vehicle: other
  T/C: 139 % of control
dose: 3.0 mg/kg/injection, vehicle: other
  survivor count: 10 of 10
dose: 6.0 mg/kg/injection, vehicle: other
  survivor count: 10 of 10

## Cc1cc(NC(=S)SCc2ccc3c(c2)OCO3)ccc1Cl
[7]
  survivor count: 5 of 10
[8]
  survivor count: 0 of 10

## CC(C)c1cc(C(=O)O)c(O)c(C(C)C)c1.CC(C)c1cc(C(=O)O)c(O)c(C(C)C)c1.[Cu]
dose: 25.0 mg/kg/injection, vehicle: saline with Tween-80
  survivor count: 10 of 10
[9]
  survivor count: 8 of 10
[1]
  survivor count: 0 of 10

## CC(C)(C)SCC(NC(=O)OCC1c2ccccc2-c2ccccc21)C(=O)O (stereo unspecified)
[7]
  survivor count: 1 of 10
[8]
  survivor count: 0 of 10

## Cc1ccc(NN=O)nc1
dose: 3.12 mg/kg/injection, vehicle: water
  T/C: 130 % of control
dose: 6.25 mg/kg/injection, vehicle: water
  T/C: 142 % of control
dose: 12.0 mg/kg/injection, vehicle: water
  T/C: 140 % of control
dose: 12.5 mg/kg/injection, vehicle: water
  survivor count: 9 of 10
dose: 25.0 mg/kg/injection, vehicle: water
  survivor count: 8 of 10

## C[CH2][Sn]([CH2]C)([O]S(C)(=O)=O)[O]S(C)(=O)=O
[10]
  survivor count: 2 of 10 and 4 of 10

## CCCCCCCCCCCCO[P+](=O)OCCCCCCCCCCCC
[2]
  survivor count: 8 of 10

## O=C(Nc1nncs1)c1ccncc1
[1]
  survivor count: 10 of 10
[2]
  survivor count: 9 of 10
[3]
  survivor count: 7 of 10

## Cc1c2ccncc2c(COC2OC(CO)C(O)C2O)c2c3ccccc3n(C)c12 (stereo unspecified)
[10]
  T/C: 134 % of control
[11]
  T/C: 144 % of control

## O=C(NC(Cc1ccccc1)C(=O)O)OCc1ccccc1 (stereo unspecified)
[7]
  survivor count: 6 of 10

## O=C1C(=O)c2cccnc2-c2ncccc21
dose: 0.75 mg/kg/injection, vehicle: Klucel (hydroxypropylcellulose) (HPC)
  survivor count: 10 of 10
dose: 0.78 mg/kg/injection, vehicle: Klucel (hydroxypropylcellulose) (HPC)
  survivor count: 8 of 10
dose: 1.5 mg/kg/injection, vehicle: Klucel (hydroxypropylcellulose) (HPC)
  survivor count: 10 of 10
dose: 6.25 mg/kg/injection, vehicle: Klucel (hydroxypropylcellulose) (HPC)
  T/C: 134 % of control
dose: 12.0 mg/kg/injection, vehicle: Klucel (hydroxypropylcellulose) (HPC)
  survivor count: 1 of 10 and 4 of 10
[4]
  survivor count: 0 of 10

## CN(N=O)C(=O)N[C@@H](C=O)[C@@H](O)[C@H](O)[C@H](O)CO
dose: 12.5 mg/kg/injection, vehicle: other
  T/C: 135 % of control
dose: 12.5 mg/kg/injection, vehicle: saline
  T/C: 110, 112, 114 [9 of 10 alive], 119 % of control
dose: 25.0 mg/kg/injection, vehicle: other
  T/C: 135 % of control
[10]
  T/C: 110, 112, 113, 115 % of control
dose: 50.0 mg/kg/injection, vehicle: other
  T/C: 129 and 135 % of control
[11]
  T/C: 115, 123, 138, 195 % of control
[12]
  T/C: 139 % of control
  survivor count: 10 of 10
[13]
  T/C: 126, 133, 137 % of control
  survivor count: 10 of 10
dose: 200.0 mg/kg/injection, vehicle: other
  survivor count: 4 of 10 and 8 of 10
dose: 200.0 mg/kg/injection, vehicle: saline
  survivor count: 4 of 10, 9 of 10, 10 of 10

## O=C1N=C(Oc2ccccc2)SC1=O
[2]
  survivor count: 8 of 10
[3]
  survivor count: 0 of 10

## Cn1cc(C2NC(=O)c3ccccc3N2)c2ccccc21 (stereo unspecified)
[5]
  T/C: 132 % of control
[6]
  T/C: 131 and 140 % of control [9 of 10 alive]
[7]
  T/C: 144 % of control
[8]
  T/C: 126 % of control
  survivor count: 2 of 7
[14]
  survivor count: 0 of 7

## O=C(N/N=C/c1c(O)ccc2ccccc12)C(=O)N/N=C/c1c(O)ccc2ccccc12
[9]
  T/C: 125 [9 of 10 alive], 128, 138 % of control
[1]
  T/C: 131 % of control
  survivor count: 10 of 10
[2]
  survivor count: 1 of 10 and 8 of 10

## C=Cc1cc(OC)c2c(c1)c(=O)oc1c2cc(OC)c2c(O)ccc(C3OC(C(C)O)C(O)C3O)c21 (stereo unspecified)
[5]
  T/C: 132 % of control
[6]
  T/C: 145 % of control
[7]
  survivor count: 4 of 10
[8]
  survivor count: 2 of 10

## C[n+]1c(-c2cccc(OCCOCCOc3cccc(-c4c5cc(N)ccc5c5ccc(N)cc5[n+]4C)c3)c2)c2cc(N)ccc2c2ccc(N)cc21
dose: 2.0 mg/kg/injection, vehicle: distilled water + Tween-80
  T/C: 138 % of control
dose: 4.0 mg/kg/injection, vehicle: distilled water + Tween-80
  survivor count: 10 of 10

## COc1ccc([C@@]23Oc4cc(OC)cc(OC)c4[C@]2(O)[C@H](O)[C@H](C(=O)N(C)C)[C@H]3c2ccccc2)cc1
dose: 1.0 mg/kg/injection, vehicle: Klucel (hydroxypropylcellulose) (HPC)
  T/C: 129 % of control
dose: 4.0 mg/kg/injection, vehicle: Klucel (hydroxypropylcellulose) (HPC)
  survivor count: 0 of 10, 6 of 10, 8 of 10

## O=C1CC2(C(=O)N1CN1CCOCC1)c1ccccc1-c1ccccc12
[14]
  survivor count: 5 of 10

## Oc1ccc(OCc2ccccc2)cc1
[5]
  survivor count: 10 of 10 (2×)
[6]
  survivor count: 10 of 10

## NS(=O)(=O)c1cc2c(cc1Cl)NC=NS2(=O)=O
dose: 600.0 mg/kg/injection, vehicle: Klucel (hydroxypropylcellulose) (HPC)
  survivor count: 10 of 10

## O=C1CCCCCC2=NC12 (stereo unspecified)
[6]
  survivor count: 0 of 10

## Cc1[nH]ccc(=O)c1O
dose: 512.0 mg/kg/injection, vehicle: saline with Tween-80
  survivor count: 7 of 10
